A short description of this series: Food ingestion experiment: body weight and food intake. In kind it is in vivo, C57BL/6J mice. The following applies: feeding period. The procedure:
C57BL/6J mice were used as experimental animals. They were purchased at the age of 7 weeks from CLEA Japan, Inc. and randomly divided into four groups at the age of 8 weeks after 1 week of acclimation as shown in Table 1 below. They were allowed to eat and drink freely, and their food intake and body weight were measured once a week. Fasting blood glucose was measured on the first day of the feeding experiment and once every 4 weeks thereafter (at 4, 8, and 12 weeks after the start of the feeding). At the end of 12 weeks, an intraperitoneal glucose tolerance test (IPGTT) was performed to analyze glucose tolerance. Rectal temperature was also measured at 8 and 12 weeks follow-up (Table 2).

Turning to `O=C1c2c(O)cc(O)cc2O[C@H](c2ccc(O)c(O)c2)[C@H]1O` [taxifolin], the food intake result is given as “no difference in food intake” (high-fat diet+3% taxifolin vs high-fat diet only) and “no difference in food intake” (normal diet+3% taxifolin vs normal diet only).

(Values after US20220265603A1, “HEPATIC FIBROSIS-INHIBITING AGENT AND BROWN FAT CELL-ACTIVATING AGENT CONTAINING TAXIFOLIN” (NATIONAL HOSPITAL ORGANIZATION, priority 2019, published 2022).)
